Assays:
Test in all cases: cells
SNU16 = settings: Homo sapiens, SNU-16, 72 h
RH41 = settings: Homo sapiens, Rh41, 72 h
TOV112D = settings: Homo sapiens, 72 h
RH30 = settings: Rh30, 72 h
COV362 = settings: COV362, 72 h
BXPC3 = settings: Homo sapiens, BXPC-3, 72 h
TC71 = settings: TC-71, 72 h
HS766T = settings: 72 h
MSTO211H = settings: Homo sapiens, MSTO-211H, 72 h
STC-1 = settings: STC-1, 72 h
SK-LMS-1 = settings: Homo sapiens, SK-LMS-1, 72 h
CHP212 = settings: Homo sapiens, CHP-212, 72 h

IC50 (SNU16): 60 µM
IC50 (RH41): 20 µM
IC50 (TOV112D): 70 µM
IC50 (RH30): 40 µM
IC50 (COV362): 500 µM
IC50 (BXPC3): 50 µM
IC50 (TC71): 70 µM
IC50 (HS766T): 60 µM
IC50 (MSTO211H): 440 µM
IC50 (STC-1): 10 µM
IC50 (SK-LMS-1): 20 µM
IC50 (CHP212): 60 µM
SMILES: Cc1cc(/C=C/c2ccc3cc(N(C)C)ccc3[n+]2C)c(C)n1-c1ccccc1 [pyrvinium pamoate, 3-carboxy-1-[(3-carboxy-2-oxidonaphthalen-1-yl)methyl]naphthalen-2-olate;2-[(E)-2-(2,5-dimethyl-1-phenylpyrrol-3-yl)ethenyl]-N,N,1-trimethylquinolin-1-ium-6-amine]
